Values from PubChem BioAssay AID1159508 (Drosophila RNAi Screening Center, 2015).
The whole screen tested 812 reagents; below is an unselected part. 18 of all reagents (2.2%) count as active. 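Calls include both increased and decreased ATP; roughly one in four reagents has no third replicate value.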 Reagent sequences are not shown. Not stated in the record: the amount of reagent.

Screen: 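Viability reference data for a dsRNA library against RNA-binding protein genes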
Cell system: Drosophila S2R+ cells
Reagent: long dsRNA against Drosophila genes
Timing: 5 days
Read-out: 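Luminescent ATP signal as a proxy for cell fitness after 5 days of RNAi, given as a z-score in each replicate and averaged over replicates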
Reading the numbers: mean ATP z-score and ATP z-score: higher = more total ATP luminescence
Hit rule: In these data the active calls have mean ATP z-score at about -2 or lower, or at about 2 or higher
Calls: active = strong ATP change (up or down); inactive = no strong ATP change

Gene	amplicon	mean ATP z-score	ATP z-score, replicate 1	ATP z-score, replicate 2	ATP z-score, replicate 3	Outcome
CG42458	DRSC26691	-1.59	-1.6	-1.54	-1.33	inactive
CG42458	DRSC29831	-0.544	-1.08	-0.651	0.208	inactive
RluA-2	DRSC02939	0.525	-0.657	-0.365	2.5	inactive
RluA-2	DRSC42256	0.753	0.339	0.612	1.16	inactive
mod	DRSC28409	0.198	0.108	0.263		inactive
mod	DRSC42218	-0.105	-0.345	0.0152	0.0342	inactive
Pym	DRSC23017	-1.25	-1.49	-1.05	-0.971	inactive
Pym	DRSC40394	0.51	0.182	0.418	0.83	inactive
bin3	DRSC04919	-0.354	-0.421	-0.242		inactive
bin3	DRSC34493	0.391	-0.0571	0.526	0.629	inactive
Ref1	DRSC12497	0.138	0.0711	0.157	0.16	inactive
Ref1	DRSC22387	0.453	0.14	0.513	0.62	inactive
CG4612	DRSC04478	-0.139	-0.151	-0.141	-0.099	inactive
CG4612	DRSC42486	-0.589	-0.555	-0.548		inactive
Hel25E	DRSC28348	1.1	1.02	1.04		inactive
Hel25E	DRSC30680	0.631	0.5	0.62	0.652	inactive
CG8545	DRSC07210	0.115	0.00962	0.0643	0.25	inactive
CG8545	DRSC35557	1.91	0.847	1.7	2.83	inactive
qkr58E-3	DRSC04711	-0.354	-0.527	-0.5	0.0341	inactive
qkr58E-3	DRSC42646	-0.222	-0.45	-0.311	0.137	inactive
CG14443	DRSC17936	1.51	1.1	1.33	1.81	inactive
CG14443	DRSC42653	-0.0484	-0.568	0.155	0.277	inactive
cup	DRSC24610	0.0158	-0.0641	0.0936		inactive
cup	DRSC35662	0.761	0.563	0.762	0.812	inactive
r2d2	DRSC03014	0.951	0.435	0.57	1.66	inactive
r2d2	DRSC29562	0.99	0.585	1.27		inactive
CG2100	DRSC12303	-0.399	-0.642	-0.104		inactive
CG2100	DRSC42692	0.19	-0.013	0.0893	0.458	inactive
Spt6	DRSC31075	1.8	1.59	1.78		inactive
Spt6	DRSC37652	1.33	0.88	1.61		inactive
Nelf-E	DRSC10567	0.828	0.507	0.655	1.16	inactive
Nelf-E	DRSC34575	-0.696	-0.906	-0.638	-0.41	inactive
l(3)07882	DRSC15882	0.877	0.665	0.976		inactive
l(3)07882	DRSC42642	-0.116	-0.4	-0.303	0.377	inactive
Smn	DRSC10223	0.282	-0.218	0.0459	0.964	inactive
Smn	DRSC42688	-0.903	-1.14	-1.05	-0.342	inactive

Continued (3 carried over from the part before).
Gene	amplicon	mean ATP z-score	ATP z-score, replicate 1	ATP z-score, replicate 2	ATP z-score, replicate 3	Outcome
l(3)07882	DRSC42642	-0.116	-0.4	-0.303	0.377	inactive
Smn	DRSC10223	0.282	-0.218	0.0459	0.964	inactive
Smn	DRSC42688	-0.903	-1.14	-1.05	-0.342	inactive
cocoon	DRSC10916	-0.828	-1.12	-0.725	-0.481	inactive
cocoon	DRSC28623	-0.0719	-0.588	0.0631	0.323	inactive
eEF2	DRSC03737	0.7	0.627	0.682		inactive
eEF2	DRSC32107	2.41	2.14	2.38		active
Pus1	DRSC15548	-0.552	-0.54	-0.492		inactive
Pus1	DRSC27461	0.153	-0.443	0.73		inactive
MCTS1	DRSC18393	1.12	0.438	1.28	1.42	inactive
MCTS1	DRSC42652	0.716	-0.058	0.479	1.59	inactive
eIF3l	DRSC26186	-0.404	-0.559	-0.554	-0.0217	inactive
eIF3l	DRSC31154	-0.636	-0.682	-0.563	-0.541	inactive
CG3294	DRSC00590	-0.0393	-0.387	-0.13	0.406	inactive
CG3294	DRSC26228	-1.02	-1.41	-1.13	-0.343	inactive
WDR79	DRSC03159	-0.808	-0.999	-0.514		inactive
WDR79	DRSC34900	-0.163	-0.275	-0.0293		inactive
TBPH	DRSC04660	0.153	-0.0194	0.15	0.3	inactive
TBPH	DRSC28032	0.406	0.0854	0.26	0.794	inactive
mIF3	DRSC06290	0.643	-0.0464	0.55	1.3	inactive
mIF3	DRSC42673	-0.0326	-0.46	0.0599	0.308	inactive
blanks	DRSC09757	-0.107	-0.574	0.0244	0.25	inactive
blanks	DRSC34872	0.235	-0.406	0.358	0.706	inactive
su(f)	DRSC36373	1.35	0.838	1.31	1.64	inactive
su(f)	DRSC40823	0.968	0.836	0.975		inactive
eIF3i	DRSC32224	0.901	0.769	0.856	0.905	inactive
eIF3i	DRSC32225	0.2	-0.281	0.217	0.627	inactive
Hexim	DRSC15490	-0.257	-0.562	-0.241	0.0832	inactive
Hexim	DRSC42700	-0.176	-0.275	-0.245	0.0248	inactive
CG9143	DRSC07338	-0.344	-0.917	-0.253	0.205	inactive
CG9143	DRSC42677	-0.324	-0.556	-0.28	-0.0728	inactive
CG11360	DRSC17124	1.6	0.934	1.17	2.37	inactive
CG11360	DRSC17134	0.0575	-0.341	0.449		inactive
Dbp80	DRSC22034	0.0135	-0.81	0.193	0.655	inactive
Dbp80	DRSC36361	0.0302	-0.429	-0.0925	0.606	inactive
NiPp1	DRSC07307	-0.171	-0.344	-0.211	0.0747	inactive
NiPp1	DRSC41261	-0.0565	-0.441	0.335		inactive
Dys	DRSC16220	0.755	0.315	0.898	0.908	inactive
Dys	DRSC40685	0.28	0.00371	0.519		inactive
Dbp45A	DRSC07395	0.256	0.228	0.251		inactive
Dbp45A	DRSC42640	0.783	0.0799	1.01	1.11	inactive
mago	DRSC04703	-0.0797	-0.116	-0.0327		inactive
mago	DRSC31313	0.517	-0.323	0.57	1.2	inactive
